Data: US20180117171A1, “IMMUNOCONJUGATES FOR PROGRAMMING OR REPROGRAMMING OF CELLS” (President and Fellows of Harvard College, priority 2015, published 2018)
For at least one compound, name, drawing or mass did not settle the structure.

Experiments:
[1] = in PBS, bound to a poly (ethylene glycol) gel; cited from earlier work
[2] = system: D10.G4.1 T cell line cultured with Jaws II cells; experiment: mixed leukocyte reaction; format: cell-based; settings: DC cultured with LPS 100 ng/ml and dexamethasone
[3] = system: Jaws II cells; experiment: Jaws II total cell number in presence of dexamethasone; format: cell-based; settings: 10^−6 M dexamethasone
[4] = system: Jaws II cells; experiment: transwell migration of Jaws II DC; format: cell-based
[5] = system: CD8+ T cells from OT-I mice; experiment: OT-I: DC co-culture, CFSE T cell proliferation; format: cell-based, mouse; settings: 1 hour pre-treatment, 3 days co-culture
Protocol: Cytotoxic T-lymphocytes (CTLs) were purified using magnetic beads (Miltenyi Biotec) from the spleens of the T cell receptor (TCR) transgenic OT-I mice (Jackson Laboratories) following the manufacturer's protocol. OT-I mice express a transgenic T cell receptor that recognizes ovalbumin residues 257-264 in the context of H2Kb. The CTLs were cultured with a 1:1 ratio with BMDC for 3 days at 37° C. in R10 media. […] The cells were washed two times before culturing with the T cells. Dexamethasone-TRP-2 was made following the same solid phase method as described above (Peptide synthesizer: CS Bio, DIPEA, Piperidine, TFA, and NMP: Advanced ChemTech, DCM: Sigma, amino acids and resin: Peptides International, dexamethasone hemisuccinate: Steraloids). Three days later, the cells were harvested and analyzed by flow cytometry using the BD LSR II Fortessa. The plots for flow cytometry were obtained using FCS Express.
Carboxyfluorescein succinimidyl ester (CFSE) labeled CD8+ T cells from TCR transgenic OT-I mice were cultured with BMDC for 3 days. […] Three days later, the cells were analyzed by flow cytometry.

Structure (SMILES)	time constant for hydrolysis [1]	T cell proliferation (tritiated thymidine uptake) [2]	number of DC relative to all other groups ([3]; day 5)	total number of cells relative to other conditions ([3]; day 7)	migration of dendritic cells toward dexamethasone ([4]; not significant at the 0.05 level)	migration of dexamethasone treated cells to CCL19 ([4]; versus untreated controls, not significant)	OT-I T cell proliferation, BMDC treated with ovalbumin plus compound [5]
C[C@@H]1C[C@H]2[C@@H]3CCC4=CC(=O)C=C[C@]4(C)[C@@]3(F)[C@@H](O)C[C@]2(C)[C@@]1(O)C(=O)COC(=O)CCC(=O)O [dexamethasone hemisuccinate, 4-pregnadien-9α-fluoro-16α-methyl-11β, 17, 21-triol-3, 20-dione 21-hemisuccinate]	½ to 1						
C[C@@H]1C[C@H]2[C@@H]3CCC4=CC(=O)C=C[C@]4(C)[C@@]3(F)[C@@H](O)C[C@]2(C)[C@@]1(O)C(=O)CO [dexamethasone]		attenuated T cell proliferation in the mixed leukocyte reaction in a dose-responsive manner	approximately one-half	approximately one-half	trend toward increased migration	trend toward greater migration to CCL19	proliferation was unchanged
